Reference: patent US9248928B2, “Methods of manufacturing contact lenses for delivery of beneficial agents” (CooperVision International Holding Company, LP, priority 2012, dated 2016)

Legend:
[1] = In vitro release assay of εPLL from ocufilcon D lenses into ISO 10344 standard saline
[2] = εPLL uptake by ionic silicone hydrogel contact lenses (effect of ionic strength of packaging solution); conditions: for average εPLL taken up by lens: autoclaved 120° C. 30 min; for % of total εPLL available taken up: silicone hydrogel lens, autoclaved
[3] = 50 ppm epinastine
[4] = 2 hr, ocufilcon D lens packaged in TRIS-NaCl
[5] = 2 hr, ocufilcon D lens packaged in TRIS-Sorbitol
[6] = 4 hr, ocufilcon D lens packaged in TRIS-NaCl
[7] = 4 hr, ocufilcon D lens packaged in TRIS-Sorbitol
[8] = 8 hr, ocufilcon D lens packaged in TRIS-NaCl
[9] = 8 hr, ocufilcon D lens packaged in TRIS-Sorbitol
[10] = 24 hr, ocufilcon D lens packaged in TRIS-NaCl
[11] = 24 hr, ocufilcon D lens packaged in TRIS-Sorbitol
[12] = 48 hr, ocufilcon D lens packaged in TRIS-NaCl
[13] = 48 hr, ocufilcon D lens packaged in TRIS-Sorbitol
[14] = 1.2 ml 500 ppm εPLL in PBS (ionic strength about 0.20)
[15] = 1.2 ml 500 ppm εPLL in TRIS/sorbitol buffer (ionic strength about 0.02)
[16] = silicone hydrogel lens of Example 1, TRIS buffer with 2% sorbitol (ionic strength about 0.02)
[17] = silicone hydrogel lens of Example 1, autoclaved in 3 ml TRIS buffered saline (ionic strength ~0.16)

Molecule: epsilon poly-1-lysine [εPLL]
- cumulative % released relative to uptake [1, 4]: 28%
- cumulative μg release [1, 4]: 75 µg
- cumulative % released relative to uptake [1, 5]: 47%
- cumulative μg release [1, 5]: 284 µg
- cumulative % released relative to uptake [1, 6]: 40%
- cumulative μg release [1, 6]: 105 µg
- cumulative % released relative to uptake [1, 7]: 56%
- cumulative μg release [1, 7]: 341 µg
- cumulative % released relative to uptake [1, 8]: 50%
- cumulative μg release [1, 8]: 132 µg
- cumulative % released relative to uptake [1, 9]: 62%
- cumulative μg release [1, 9]: 380 µg
- cumulative % released relative to uptake [1, 10]: 62%
- cumulative μg release [1, 10]: 163 µg
- cumulative % released relative to uptake [1, 11]: 68%
- cumulative μg release [1, 11]: 416 µg
- cumulative % released relative to uptake [1, 12]: 68%
- cumulative μg release [1, 12]: 178 µg
- cumulative % released relative to uptake [1, 13]: 71%
- cumulative μg release [1, 13]: 431 µg
- average εPLL taken up by lens [2, 14]: 191 µg
- average εPLL taken up by lens [2, 15]: 408 µg
- % of total εPLL available taken up [2, 14]: about 32%
- % of total εPLL available taken up [2, 15]: about 68%

Molecule: NC1=NCC2c3ccccc3Cc3ccccc3N12 (stereo not shown) [epinastine]
- % of available epinastine taken up [3, 16]: about 59%
- epinastine taken up by lens [3, 16]: about 88 μg
- % of available epinastine taken up [3, 17]: about 37%
- epinastine taken up by lens [3, 17]: about 56 μg

Read-outs that look alike come from different tables or passages of the source.
